These results are taken from publication PMC11784353.

The target in assay [1] is equine MAVS-Flag (equine). The assay is described as follows: co-IP; HEK293T cells co-transfected with the two tagged proteins, harvested at 24 hpt; lysis buffer 50 mM HEPES-NaOH pH 7.9, 100 mM NaCl, 50 mM KCl, 0.25% NP-40, 1 mM dithiothreitol; precipitated with anti-Flag and anti-Flag magnetic beads overnight at 4°C, washed four times; immunoblot with anti-HA or anti-Flag; in Fig. 5C also with Gag-Myc co-expressed (more Smurf1 bound to MAVS). Background: Immunoblotting shows a protein as a band on a membrane.

Another assay deals with VN-MAVS-Flag (equine). The assay is described as follows: split reporter; BiFC with Venus fragments: VN-MAVS-Flag and VC-Smurf1-HA co-transfected into HEK293T cells, with or without Gag (signal enhanced with Gag); confocal microscopy.
Assay [2] addresses EIAV Gag-Flag (equine infectious anemia virus (EIAV)). The assay is described as follows: co-IP; HEK293T cells co-transfected with the two tagged proteins, harvested at 24 hpt; lysis buffer 50 mM HEPES-NaOH pH 7.9, 100 mM NaCl, 50 mM KCl, 0.25% NP-40, 1 mM dithiothreitol; precipitated with anti-Flag and anti-Flag magnetic beads overnight at 4°C, washed four times; immunoblot with anti-HA or anti-Flag; in Fig. 5C also with Gag-Myc co-expressed (more Smurf1 bound to MAVS).

Results are given in words; binding and its absence hold for the method and conditions named. In cells and extracts the contact can be indirect. A result given as binding can be weak or reduced; the word gives no strength. For some of these results: Where a sequence is shown, tags or fusion partners need not be part of it.

For the molecule “equine Smurf1-HA (from UniProt F6R1Z0 1-727) (enzyme)”, the binding entry in assay [1] is given as “binds”.
Regarding “VC-Smurf1-HA (from UniProt F6R1Z0 1-727) (enzyme)”, the binding entry with VN-MAVS-Flag (equine) was “binds”.

B1: truncated Smurf1-HA (aa 121 to 419) (domain or fragment, UniProt F6R1Z0 121-419)
chain: LSPSDTDAVRGQIVVGLQTRDRIGTGGSVVDCRGLLENEGTVYEDSGPGRPLSCFMEEPAPYTDSTGAAAGGGNCRFVESPSQDQRLQAQRLRNPEVRGSLQTPQNRPHGHQSPELPEGYEQRTTVQGQVYFLHTQTGVSTWHDPRIPRDLNSVNCDELGPLPPGWEVRSTVSGRIYFVDHNNRTTQFTDPRLHHIMNHQCQLKEPSQPLPLPSEGSVEDEELPAQRYERDLVQKLKVLRHELSLQQPQAGHCRIEVSREEIFEESYRQIMKMRPKDLKKRLMVKFRGEEGLDYGGVAR
As for B1, the binding entry in assay [2] is reported as “binds”.

B2: HA-tagged MUL1 (enzyme, UniProt F6TM98 1-324)
chain: MLEKGTFAVLNKGARRIHLGEDLKSILSEAPGKCVPYAVIEGVVRSVKETLNSQFVDNCKGVIQRLTLQEHKMVWNRTTHLWNDCSKIIHQRTNSVPFELVPHEDGVDVAVRVLKPLDALDLGLETVYEKYHPLVQSFTDVIGHYISGERPKGIQETEEMLKVGAALTGVGELVLDNNAVRLQPPKQGMQYYLSSQDFDSLLQGQESSARLWKVLTLVFGFAACAALFFILWKQYLQRQERLRLKQMEEEFREHEAQLLSRAKPEDRESLKSACVVCLSNFKACVFLECGHVCSCAECYRALPEPKRCPICRQQITRVVPLYSS
Turning to B2, in assay [2], the binding entry is listed as “no binding”.
